Binding data for one substance are collected here from paper PMC13372662.

Sequences of proteins named here, by UniProt entry; tags and fusion partners are left off.
UniProt P12004: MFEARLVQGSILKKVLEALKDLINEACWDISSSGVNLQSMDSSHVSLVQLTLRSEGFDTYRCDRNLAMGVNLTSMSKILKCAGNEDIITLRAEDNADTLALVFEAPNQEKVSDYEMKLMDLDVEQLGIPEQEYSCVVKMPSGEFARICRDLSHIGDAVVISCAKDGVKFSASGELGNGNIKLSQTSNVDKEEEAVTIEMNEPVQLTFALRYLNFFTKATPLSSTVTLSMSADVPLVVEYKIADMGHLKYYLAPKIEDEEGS
UniProt P46100: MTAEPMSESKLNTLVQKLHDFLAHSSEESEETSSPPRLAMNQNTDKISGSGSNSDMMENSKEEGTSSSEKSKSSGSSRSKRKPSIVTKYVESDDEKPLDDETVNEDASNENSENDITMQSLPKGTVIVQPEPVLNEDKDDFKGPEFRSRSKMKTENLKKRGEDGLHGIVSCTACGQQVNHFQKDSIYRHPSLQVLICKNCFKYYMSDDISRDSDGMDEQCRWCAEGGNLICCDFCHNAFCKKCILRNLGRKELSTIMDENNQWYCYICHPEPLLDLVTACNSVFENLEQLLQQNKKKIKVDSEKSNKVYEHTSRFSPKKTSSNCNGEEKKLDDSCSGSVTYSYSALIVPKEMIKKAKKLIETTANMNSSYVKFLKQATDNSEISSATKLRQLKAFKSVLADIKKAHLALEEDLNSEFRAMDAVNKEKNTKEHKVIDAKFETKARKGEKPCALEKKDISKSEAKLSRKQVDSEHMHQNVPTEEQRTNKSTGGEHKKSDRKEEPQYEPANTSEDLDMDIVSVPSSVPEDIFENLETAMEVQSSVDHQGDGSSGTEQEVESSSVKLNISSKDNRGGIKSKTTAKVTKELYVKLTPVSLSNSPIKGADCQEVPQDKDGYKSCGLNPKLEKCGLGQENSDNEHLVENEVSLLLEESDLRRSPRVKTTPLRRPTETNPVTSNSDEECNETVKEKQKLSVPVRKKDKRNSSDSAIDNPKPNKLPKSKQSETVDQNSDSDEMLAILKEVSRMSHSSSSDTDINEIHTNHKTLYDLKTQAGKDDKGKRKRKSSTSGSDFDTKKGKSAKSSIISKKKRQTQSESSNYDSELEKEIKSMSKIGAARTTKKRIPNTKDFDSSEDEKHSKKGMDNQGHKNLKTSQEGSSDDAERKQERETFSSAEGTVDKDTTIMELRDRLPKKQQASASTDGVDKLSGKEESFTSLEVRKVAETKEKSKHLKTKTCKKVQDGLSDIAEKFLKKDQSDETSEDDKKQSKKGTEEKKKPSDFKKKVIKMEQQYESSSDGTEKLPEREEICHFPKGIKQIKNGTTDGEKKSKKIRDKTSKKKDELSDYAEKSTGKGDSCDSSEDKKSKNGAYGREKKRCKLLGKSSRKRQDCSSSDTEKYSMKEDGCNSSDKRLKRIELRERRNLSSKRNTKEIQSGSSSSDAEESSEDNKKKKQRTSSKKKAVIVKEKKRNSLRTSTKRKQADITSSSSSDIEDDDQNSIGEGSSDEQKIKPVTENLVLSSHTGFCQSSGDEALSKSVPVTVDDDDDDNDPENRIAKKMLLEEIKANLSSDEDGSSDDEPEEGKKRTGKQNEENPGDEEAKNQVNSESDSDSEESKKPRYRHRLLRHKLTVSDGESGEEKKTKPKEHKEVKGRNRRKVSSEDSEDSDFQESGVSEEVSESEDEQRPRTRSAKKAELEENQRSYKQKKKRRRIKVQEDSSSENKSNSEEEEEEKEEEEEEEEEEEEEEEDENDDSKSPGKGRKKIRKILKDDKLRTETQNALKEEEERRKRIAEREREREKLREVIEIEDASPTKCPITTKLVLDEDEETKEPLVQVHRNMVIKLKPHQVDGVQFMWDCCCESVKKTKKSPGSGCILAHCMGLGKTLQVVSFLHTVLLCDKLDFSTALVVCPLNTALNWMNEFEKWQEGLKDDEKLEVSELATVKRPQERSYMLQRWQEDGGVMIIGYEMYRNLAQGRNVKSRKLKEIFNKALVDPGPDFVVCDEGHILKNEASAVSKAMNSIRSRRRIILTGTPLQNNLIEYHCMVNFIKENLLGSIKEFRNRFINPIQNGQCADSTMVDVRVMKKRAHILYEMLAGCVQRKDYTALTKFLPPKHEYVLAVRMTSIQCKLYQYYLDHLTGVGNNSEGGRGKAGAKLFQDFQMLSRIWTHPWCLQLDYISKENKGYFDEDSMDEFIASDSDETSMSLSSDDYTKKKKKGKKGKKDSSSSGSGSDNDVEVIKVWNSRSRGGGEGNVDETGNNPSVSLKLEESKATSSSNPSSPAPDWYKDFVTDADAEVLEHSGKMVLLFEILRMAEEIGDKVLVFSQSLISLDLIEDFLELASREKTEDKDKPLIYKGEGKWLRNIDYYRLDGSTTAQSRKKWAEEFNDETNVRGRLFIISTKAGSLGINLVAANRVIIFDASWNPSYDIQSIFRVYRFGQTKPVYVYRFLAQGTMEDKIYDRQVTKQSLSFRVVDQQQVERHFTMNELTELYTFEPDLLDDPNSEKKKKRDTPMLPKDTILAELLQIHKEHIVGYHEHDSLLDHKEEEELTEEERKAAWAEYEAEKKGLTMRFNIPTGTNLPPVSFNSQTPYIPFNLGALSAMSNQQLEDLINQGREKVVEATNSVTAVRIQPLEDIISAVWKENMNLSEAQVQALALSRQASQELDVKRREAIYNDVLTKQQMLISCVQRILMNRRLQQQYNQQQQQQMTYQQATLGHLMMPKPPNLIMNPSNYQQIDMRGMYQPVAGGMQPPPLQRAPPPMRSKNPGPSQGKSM

No constants are given. Whether binding was seen depends on the method and setting. Binding seen in cells or lysates may run through a third protein. Some results given as binding are weak or reduced against the parent protein; the word gives no strength.

For the assay, the target named is PCNA (human (endogenous in eHAP)) (UniProt P12004). The assay can be described thus: proximity ligation; Duolink PLA with rabbit anti-HA and mouse anti-PCNA; ATRX-null eHAP cells stably expressing HA-tagged ATRX, pulsed with 10 µM EdU for 10 min, pre-extracted in CSK buffer with 0.2% Triton X-100, fixed; foci per nucleus in EdU+ cells, unchallenged.

As to “HA-tagged ATRX-WT (from UniProt P46100 1-2492)”, the binding entry is “binds”.
